Literature values in patent US8734826B2 (priority 2005, dated 2014).
For at least one compound, name, drawing or mass did not settle the structure.

What was measured:
[1] = test system: anal fissure; conditions: in vivo
[2] = test system: anal sphincter; conditions: in vivo

COC(=O)C1=C(C)NC(C)=C(C(=O)OC)C1c1ccccc1[N+](=O)[O-] [nifedipine]
anal pain [1]: decrease of anal pain | resting anal pressure [2]: effective in reduction of resting anal pressure
